Laboratory results published in patent US20150148234A1, “HERBICIDE-RESISTANT SUNFLOWER PLANTS WITH MULTIPLE HERBICIDE RESISTANT ALLELES OF AHASL1 AND METHODS OF USE” (NIDERA S.A., priority 2013, published 2015).

Key:
[1] = test system: A122T/A205V heterozygous hybrids (CLHA-Plus/IMISUN hetero); test: multi-location field evaluation of crop injury (Example 9); assay type: in vivo, sunflower; conditions: all locations and doses
[2] = test system: sunflower A205V vs A205V/A122T; test: imazapyr whole plant greenhouse test (Example 2), genotype difference; assay type: in vivo; conditions: 14 DAT

| Compound | slope of the regression line (b), PI vs mean PI of A205V checks [1] | Difference between A205V vs A205V/A122T, Phytotoxicity Index ([2]; dose 0.5 (0.5x, 40 g ai/ha)) | Difference between A205V vs A205V/A122T, plant height ([2]; dose 0.5 (0.5x, 40 g ai/ha)) | Difference between A205V vs A205V/A122T, Phytotoxicity Index ([2]; dose 1 (1x, 80 g ai/ha)) | Difference between A205V vs A205V/A122T, plant height ([2]; dose 1 (1x, 80 g ai/ha)) | Difference between A205V vs A205V/A122T, Phytotoxicity Index ([2]; dose 2 (2x, 160 g ai/ha)) | Difference between A205V vs A205V/A122T, plant height ([2]; dose 2 (2x, 160 g ai/ha)) | Difference between A205V vs A205V/A122T, Phytotoxicity Index ([2]; dose 3 (3x, 240 g ai/ha)) | Difference between A205V vs A205V/A122T, plant height ([2]; dose 3 (3x, 240 g ai/ha)) | Difference between A205V vs A205V/A122T, Phytotoxicity Index ([2]; dose 4 (4x, 320 g ai/ha)) | Difference between A205V vs A205V/A122T, plant height ([2]; dose 4 (4x, 320 g ai/ha)) | Difference between A205V vs A205V/A122T, Phytotoxicity Index ([2]; dose 5 (5x, 400 g ai/ha)) | Difference between A205V vs A205V/A122T, plant height ([2]; dose 5 (5x, 400 g ai/ha)) | Difference between A205V vs A205V/A122T, Phytotoxicity Index ([2]; dose 6 (6x, 480 g ai/ha)) | Difference between A205V vs A205V/A122T, plant height ([2]; dose 6 (6x, 480 g ai/ha)) |
| --- | --- | --- | --- | --- | --- | --- | --- | --- | --- | --- | --- | --- | --- | --- | --- |
| COCc1cnc(C2=NC(C)(C(C)C)C(=O)N2)c(C(=O)O)c1 (stereo not shown) [imazamox] | 41.39±0.05 |  |  |  |  |  |  |  |  |  |  |  |  |  |  |
| CC(C)C1(C)N=C(c2ncccc2C(=O)O)NC1=O (stereo not shown) [imazapyr] | 0.26±0.07 | −0.50 | 0.21 | −0.50 | 0.89 | 1.66 | −24.63 | 4.65 | −46.79 | 6.92 | −62.01 | 7.59 | −48.59 | 7.19 | −31.39 |
